The other results are listed elsewhere or left out. Residues, ends and D or L forms follow the SMILES beside them. *: point of attachment. Cbz = O=C(OCc1ccccc1)*
What was measured:
Assay in all cases: log2 fold change, soluble protein after heating vs DMSO (PISA); higher = thermal stabilisation; K562 cells, 10 uM, 30 min; active = over 0.2 and 3.5 SD of the protein, either way, in both replicates (recomputed)
erlotinib = compound: C#Cc1cccc(Nc2ncnc3cc(OCCOC)c(OCCOC)cc23)c1 [erlotinib]
In short: (§1)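 Soluble protein was quantified by TMTpro 16plex LC-MS/MS after channel sums were equalised. It was obtained as the supernatant after 21,000xg for 90 min from pooled aliquots of K562 cells (2×10^6 cells/mL, 10 μM compound, 30 min) heated for 3 min across 48°C-58°C and extracted in PBS with 0.5% NP-40 at 4°C. Thermal stability values are relative to control samples and come from duplicates. They are given as log2 fold changes.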

Amino acid sequences for entries named in this document (tags omitted). A change or cut given only in a name is not applied to a line headed by its entry.
UniProt Q8IWB9: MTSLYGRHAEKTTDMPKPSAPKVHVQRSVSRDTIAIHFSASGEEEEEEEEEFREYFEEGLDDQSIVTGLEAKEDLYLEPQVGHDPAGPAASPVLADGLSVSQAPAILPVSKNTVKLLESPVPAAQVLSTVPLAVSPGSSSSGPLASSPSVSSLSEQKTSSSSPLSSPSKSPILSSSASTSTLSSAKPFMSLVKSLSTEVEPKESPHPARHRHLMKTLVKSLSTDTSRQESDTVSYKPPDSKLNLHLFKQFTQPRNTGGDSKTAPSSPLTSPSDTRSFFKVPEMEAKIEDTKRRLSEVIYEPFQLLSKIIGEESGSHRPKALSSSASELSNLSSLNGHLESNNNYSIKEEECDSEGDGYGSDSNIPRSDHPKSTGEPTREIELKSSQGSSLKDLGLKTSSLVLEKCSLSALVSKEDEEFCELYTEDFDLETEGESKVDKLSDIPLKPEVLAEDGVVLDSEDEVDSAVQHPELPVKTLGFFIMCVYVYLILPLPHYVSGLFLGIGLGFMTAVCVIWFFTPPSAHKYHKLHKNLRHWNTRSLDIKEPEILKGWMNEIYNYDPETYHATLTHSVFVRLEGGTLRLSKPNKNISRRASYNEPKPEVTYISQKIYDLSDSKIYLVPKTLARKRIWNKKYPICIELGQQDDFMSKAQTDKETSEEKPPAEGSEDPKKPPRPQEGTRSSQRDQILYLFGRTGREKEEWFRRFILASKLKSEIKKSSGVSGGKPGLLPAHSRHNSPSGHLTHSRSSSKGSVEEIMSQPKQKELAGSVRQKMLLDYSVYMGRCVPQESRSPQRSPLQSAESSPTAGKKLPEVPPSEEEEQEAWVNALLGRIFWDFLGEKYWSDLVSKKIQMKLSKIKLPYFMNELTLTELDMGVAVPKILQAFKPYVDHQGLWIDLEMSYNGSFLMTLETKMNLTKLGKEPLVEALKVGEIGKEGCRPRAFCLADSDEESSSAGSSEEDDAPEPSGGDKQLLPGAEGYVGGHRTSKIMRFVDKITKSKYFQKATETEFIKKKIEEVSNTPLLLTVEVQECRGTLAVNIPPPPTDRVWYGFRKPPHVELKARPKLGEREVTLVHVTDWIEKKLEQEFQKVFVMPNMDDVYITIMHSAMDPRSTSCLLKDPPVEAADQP
UniProt Q9BVW5: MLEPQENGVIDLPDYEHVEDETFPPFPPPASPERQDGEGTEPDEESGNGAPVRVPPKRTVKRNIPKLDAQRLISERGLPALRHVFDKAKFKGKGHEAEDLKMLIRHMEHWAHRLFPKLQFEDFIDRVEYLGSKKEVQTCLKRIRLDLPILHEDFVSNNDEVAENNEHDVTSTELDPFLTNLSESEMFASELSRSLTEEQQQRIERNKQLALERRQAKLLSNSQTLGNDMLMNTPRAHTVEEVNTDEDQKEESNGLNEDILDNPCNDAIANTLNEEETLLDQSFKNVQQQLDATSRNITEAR
UniProt P02786, whole entry, looked up: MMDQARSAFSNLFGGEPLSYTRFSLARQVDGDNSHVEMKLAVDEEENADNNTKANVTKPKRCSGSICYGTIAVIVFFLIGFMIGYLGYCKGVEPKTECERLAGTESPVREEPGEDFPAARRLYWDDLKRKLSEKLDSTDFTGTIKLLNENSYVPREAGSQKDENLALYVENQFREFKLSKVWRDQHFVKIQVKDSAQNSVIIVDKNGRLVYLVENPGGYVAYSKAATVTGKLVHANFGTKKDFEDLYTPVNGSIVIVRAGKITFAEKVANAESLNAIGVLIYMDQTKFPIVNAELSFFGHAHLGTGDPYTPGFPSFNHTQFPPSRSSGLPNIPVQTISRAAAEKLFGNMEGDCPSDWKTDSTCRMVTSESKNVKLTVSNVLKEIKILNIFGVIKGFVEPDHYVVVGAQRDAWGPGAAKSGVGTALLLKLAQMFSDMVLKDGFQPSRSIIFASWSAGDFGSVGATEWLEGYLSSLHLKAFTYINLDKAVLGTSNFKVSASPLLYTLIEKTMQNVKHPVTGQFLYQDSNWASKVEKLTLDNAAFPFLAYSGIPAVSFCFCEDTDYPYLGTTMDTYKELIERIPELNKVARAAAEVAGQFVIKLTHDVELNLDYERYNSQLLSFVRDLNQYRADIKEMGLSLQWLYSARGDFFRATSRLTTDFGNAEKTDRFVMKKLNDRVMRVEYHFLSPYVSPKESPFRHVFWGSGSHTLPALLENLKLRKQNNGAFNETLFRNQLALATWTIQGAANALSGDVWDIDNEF
UniProt Q9NYB0: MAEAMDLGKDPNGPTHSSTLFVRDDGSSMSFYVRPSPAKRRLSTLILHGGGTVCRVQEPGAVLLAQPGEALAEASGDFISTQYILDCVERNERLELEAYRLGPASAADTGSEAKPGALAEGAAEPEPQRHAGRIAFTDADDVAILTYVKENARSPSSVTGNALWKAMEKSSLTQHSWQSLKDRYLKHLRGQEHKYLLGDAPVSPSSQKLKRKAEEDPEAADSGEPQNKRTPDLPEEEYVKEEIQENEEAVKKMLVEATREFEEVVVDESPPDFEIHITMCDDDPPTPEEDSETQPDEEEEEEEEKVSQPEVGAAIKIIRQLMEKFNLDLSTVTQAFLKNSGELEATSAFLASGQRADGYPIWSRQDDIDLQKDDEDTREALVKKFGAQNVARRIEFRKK
UniProt Q9NUJ3: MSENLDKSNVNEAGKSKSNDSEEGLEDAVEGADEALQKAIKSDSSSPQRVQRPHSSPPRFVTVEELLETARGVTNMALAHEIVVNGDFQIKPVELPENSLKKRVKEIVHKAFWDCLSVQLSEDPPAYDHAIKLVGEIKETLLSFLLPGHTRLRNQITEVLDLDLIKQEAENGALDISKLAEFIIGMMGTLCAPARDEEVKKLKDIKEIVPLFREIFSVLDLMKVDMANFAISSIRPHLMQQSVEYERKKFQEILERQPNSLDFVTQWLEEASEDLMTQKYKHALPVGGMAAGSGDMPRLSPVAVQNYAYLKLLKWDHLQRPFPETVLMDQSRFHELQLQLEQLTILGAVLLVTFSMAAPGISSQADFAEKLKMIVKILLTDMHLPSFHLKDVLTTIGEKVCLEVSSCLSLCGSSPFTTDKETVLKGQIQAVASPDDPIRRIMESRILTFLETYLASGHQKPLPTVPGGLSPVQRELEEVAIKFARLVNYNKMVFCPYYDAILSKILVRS
UniProt Q9ULP9: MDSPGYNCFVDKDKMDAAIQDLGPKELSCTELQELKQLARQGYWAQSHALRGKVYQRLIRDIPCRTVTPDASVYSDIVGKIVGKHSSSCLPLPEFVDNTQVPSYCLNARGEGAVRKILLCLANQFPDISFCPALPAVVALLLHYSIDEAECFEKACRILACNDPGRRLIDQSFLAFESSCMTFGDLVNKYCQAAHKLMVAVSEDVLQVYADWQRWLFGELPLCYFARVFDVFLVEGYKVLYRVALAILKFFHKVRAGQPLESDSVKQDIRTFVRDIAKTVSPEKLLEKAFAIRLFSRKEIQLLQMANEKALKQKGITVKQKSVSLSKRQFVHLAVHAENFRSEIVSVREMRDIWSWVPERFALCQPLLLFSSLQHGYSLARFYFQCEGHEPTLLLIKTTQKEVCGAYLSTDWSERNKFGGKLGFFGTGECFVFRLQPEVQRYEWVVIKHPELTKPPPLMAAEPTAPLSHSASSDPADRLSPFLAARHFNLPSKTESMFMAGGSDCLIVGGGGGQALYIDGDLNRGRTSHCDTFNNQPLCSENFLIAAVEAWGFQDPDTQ
UniProt Q9HA65: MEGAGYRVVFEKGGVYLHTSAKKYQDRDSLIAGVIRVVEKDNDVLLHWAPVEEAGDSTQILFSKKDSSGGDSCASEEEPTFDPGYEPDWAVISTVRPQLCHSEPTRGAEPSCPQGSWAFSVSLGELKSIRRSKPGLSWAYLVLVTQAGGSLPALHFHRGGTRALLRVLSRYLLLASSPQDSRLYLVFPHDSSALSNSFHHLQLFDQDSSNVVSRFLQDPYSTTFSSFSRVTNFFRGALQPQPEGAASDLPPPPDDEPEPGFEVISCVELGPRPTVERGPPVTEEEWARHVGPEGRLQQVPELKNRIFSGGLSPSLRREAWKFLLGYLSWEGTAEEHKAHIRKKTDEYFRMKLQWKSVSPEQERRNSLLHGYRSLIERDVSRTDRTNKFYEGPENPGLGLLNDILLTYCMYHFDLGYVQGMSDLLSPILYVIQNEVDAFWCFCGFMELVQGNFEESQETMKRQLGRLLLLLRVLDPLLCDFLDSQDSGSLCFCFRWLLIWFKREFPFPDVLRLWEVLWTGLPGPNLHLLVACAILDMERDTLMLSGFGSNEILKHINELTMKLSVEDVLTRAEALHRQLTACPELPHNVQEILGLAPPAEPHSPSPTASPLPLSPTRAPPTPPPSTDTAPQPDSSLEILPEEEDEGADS
UniProt P36897: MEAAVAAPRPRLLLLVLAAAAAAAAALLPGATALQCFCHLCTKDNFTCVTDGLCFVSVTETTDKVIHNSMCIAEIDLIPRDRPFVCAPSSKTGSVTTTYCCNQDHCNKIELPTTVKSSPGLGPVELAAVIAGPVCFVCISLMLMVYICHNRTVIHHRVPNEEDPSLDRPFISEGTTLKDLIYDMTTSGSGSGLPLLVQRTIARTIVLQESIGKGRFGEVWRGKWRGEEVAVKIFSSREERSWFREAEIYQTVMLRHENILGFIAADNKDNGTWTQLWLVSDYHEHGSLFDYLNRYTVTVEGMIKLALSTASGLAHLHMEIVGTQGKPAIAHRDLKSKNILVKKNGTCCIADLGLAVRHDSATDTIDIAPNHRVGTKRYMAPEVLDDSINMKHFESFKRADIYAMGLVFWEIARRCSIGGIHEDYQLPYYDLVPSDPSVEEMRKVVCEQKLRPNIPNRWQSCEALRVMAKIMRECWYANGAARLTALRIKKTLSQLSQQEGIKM
UniProt P04183: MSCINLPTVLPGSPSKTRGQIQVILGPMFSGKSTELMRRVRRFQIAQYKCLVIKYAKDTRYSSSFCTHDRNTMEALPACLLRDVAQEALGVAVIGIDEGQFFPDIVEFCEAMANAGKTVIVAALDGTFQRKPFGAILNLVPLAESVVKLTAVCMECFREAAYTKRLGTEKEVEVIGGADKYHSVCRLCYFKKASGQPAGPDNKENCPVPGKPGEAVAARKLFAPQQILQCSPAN

[1] = compound: C/C(=N\NC(=O)C1=CC(=CC=C1)S(=O)(=O)N2CCOCC2)/C3=C(C=CC(=C3)Cl)O
In short: as §1

[2] = compound: C1=CC(=C(C=C1Cl)C2=NC3=NC=CN=C3C(=N2)NC4=CC=NC=C4)F
In short: as §1

[3] = compound: C1=CC(=CC=C1C2=NC3=C(N2)C=C(C=C3)C(=O)N)OC4=CC=C(C=C4)Cl
In short: as §1

[4] = compound: C1=CC2=C(C=CC(=C2)/C=C\3/C(=O)NC(=NCC4=CC=CS4)S3)N=C1
In short: as §1

[5] = compound: C1=CC2=NC=CN=C2C=C1/C=C/3\C(=O)NC(=O)S3
In short: as §1

[6] = compound: C1=CC=C(C=C1)C2=NC(=C(N2)C3=CC=NC=C3)C4=CC(=C(C=C4)Cl)O
In short: as §1

[7] = compound: C1=CC=C2C(=C1)C3=NNC4=CC=CC(=C43)C2=O
In short: as §1

[8] = compound: C1CCN(C1)C(=O)NC2=CC=CC(=C2)NC3=NC=C(C(=N3)NCCC4=CN=CN4)Br
In short: as §1

[9] = compound: C1CN(CCC1(CC2=CC=C(C=C2)Cl)N)C3=NC=NC4=C3C=CN4
In short: as §1

IRAK-1-4 Inhibitor I = compound: C1COCCN1CCN2C3=CC=CC=C3N=C2NC(=O)C4=CC(=CC=C4)[N+](=O)[O-] [IRAK-1-4 Inhibitor I]
In short: as §1

ibrutinib = compound: C=CC(=O)N1CCC[C@@H](n2nc(-c3ccc(Oc4ccccc4)cc3)c3c(N)ncnc32)C1 [ibrutinib]
In short: as §1

[10] = compound: CC(=O)c1cnc2ccc(-c3cc(Cl)c(O)c(Cl)c3)nc2c1N[C@H]1CC[C@H](CN(C)C)CC1
In short: as §1

ralimetinib = compound: CC(C)(C)Cn1c(N)nc2ccc(-c3[nH]c(C(C)(C)C)nc3-c3ccc(F)cc3)nc21 [ralimetinib]
In short: as §1

[11] = compound: CC(C)(O)CC(=O)NCCn1ccc2ncnc(Nc3ccc(Oc4cccc(C(F)(F)F)c4)c(Cl)c3)c21
In short: as §1

[12] = compound: CC(C)C1=C2N=C(C=C(N2N=C1)NCC3=CC=CC=C3)NCCCCCCN
In short: as §1

[13] = compound: CC(C)C[C@@H](C=O)NC(=O)[C@H](CC(C)C)NC(=O)[C@H](CC(C)C)NC(=O)OCc1ccccc1
In short: as §1

pinometostat = compound: CC(C)N(C[C@H]1O[C@@H](n2cnc3c(N)ncnc32)[C@H](O)[C@@H]1O)[C@H]1C[C@@H](CCc2nc3cc(C(C)(C)C)ccc3[nH]2)C1 [pinometostat]
In short: as §1

[14] = compound: CC1=C(C2=C(C=C1)C(=O)C3=CC=CC=C3N2CCCN)C
In short: as §1

[15] = compound: CC1=C(C(CC(=O)N1)C2=CC=C(C=C2)C(F)(F)F)C(=O)NC3=C(C=C4C(=C3)C=NN4)F
In short: as §1

Measured: log2 fold change

TEX2 isoform 2 (UniProt Q8IWB9)
inactive: erlotinib 0.074 | [1] -0.032 | [2] -0.026 | [3] 0.002 | [4] 0.063 | [5] 0.084 | [6] 0.07 | [7] 0.011 | [8] -0.076 | [9] 0.037 | IRAK-1-4 Inhibitor I -0.127 | ibrutinib -0.09 | [10] -0.172 | ralimetinib -0.024 | [11] 0.079 | [12] 0.155 | [13] 0.091 | pinometostat 0.115 | [14] 0.064

TIPIN (UniProt Q9BVW5)
inactive: erlotinib -0.051 | [1] 0.003 | [2] 0.022 | [3] 0.012 | [4] 0.008 | [5] 0.097 | [7] -0.125 | [8] -0.004 | [9] -0.041 | IRAK-1-4 Inhibitor I 0.024 | ibrutinib 0.027 | [10] -0.017 | [11] 0.011 | [12] 0.007 | pinometostat -0.001 | [15] 0.011 | [14] -0.082

TFRC (UniProt P02786)
inactive: erlotinib 0.002 | [1] 0.017 | [2] 0.022 | [3] 0.006 | [4] 0.037 | [5] 0.027 | [6] 0.023 | [7] -0.011 | [8] 0.006 | [9] 0.055 | IRAK-1-4 Inhibitor I 0.058 | ibrutinib 0.026 | [10] -0.023 | ralimetinib -0.005 | [11] 0.001 | [12] -0.032 | [13] -0.005 | pinometostat -0.02 | [14] -0.03

TERF2IP (UniProt Q9NYB0)
inactive: erlotinib -0.046 | [1] 0 | [2] -0.016 | [3] -0.003 | [4] 0.022 | [5] 0.049 | [6] -0.038 | [7] -0.074 | [8] -0.047 | [9] -0.006 | IRAK-1-4 Inhibitor I -0.023 | ibrutinib -0.009 | [10] -0.151 | ralimetinib 0.038 | [11] 0.034 | [12] -0.147 | [13] 0.058 | pinometostat 0.024
active: [14] -0.33

TGM2 (UniProt A2A299)
inactive: erlotinib -0.128 | [1] -0.09 | [3] -0.281 | [4] -0.131 | [6] -0.083 | [7] -0.027 | [8] -0.17 | [9] -0.189 | [10] 0.162 | ralimetinib 0.095 | [12] 0.048 | [13] 0.051 | [14] -0.014

TCP11L1 (UniProt Q9NUJ3)
inactive: erlotinib -0.144 | [1] 0.306 | [3] -0.122 | [4] -0.056 | [7] 0.151 | [10] 0.095 | [12] -0.212 | [15] 0.146

TBC1D24 (UniProt Q9ULP9)
inactive: erlotinib 0.038 | [1] 0.068 | [2] 0.059 | [3] 0.037 | [4] 0.072 | [5] 0 | [6] 0.048 | [7] 0.053 | [8] 0.042 | [9] 0.157 | IRAK-1-4 Inhibitor I -0.025 | ibrutinib 0.022 | ralimetinib -0.086 | [11] -0.057 | [12] -0.09 | [13] -0.053 | pinometostat 0.04 | [14] 0.142
active: [10] -0.415

TBC1D17 (UniProt Q9HA65)
inactive: erlotinib 0.111 | [1] 0.018 | [3] -0.026 | [4] -0.017 | [5] -0.064 | [6] -0.035 | [7] 0.005 | [8] -0.049 | [9] 0.088 | ibrutinib -0.046 | [10] -0.041 | ralimetinib 0.04 | [12] -0.284 | [13] 0.042 | [15] -0.052 | [14] 0.142

TGFBR1 isoform 2 (UniProt P36897)
inactive: erlotinib -0.012 | [1] 0.084 | [3] -0.051 | [4] -0.072 | [5] 0.043 | [6] 0.161 | [7] 0.004 | [8] -0.019 | [9] 0.047 | IRAK-1-4 Inhibitor I -0.004 | ibrutinib 0.006 | ralimetinib 0.072 | [11] -0.043 | [12] 0.025 | [13] 0.049 | pinometostat -0.047 | [14] 0.019
active: [10] 0.329

TK1 (UniProt P04183)
inactive: erlotinib -0.029 | [1] 0.004 | [2] 0.044 | [3] 0.017 | [4] -0.02 | [5] -0.012 | [6] -0.03 | [7] -0.011 | [8] -0.028 | [9] 0.046 | IRAK-1-4 Inhibitor I 0.037 | ibrutinib 0.025 | [10] 0.003 | ralimetinib -0.048 | [11] -0.016 | [12] 0.059 | [13] -0.001 | pinometostat -0.013 | [14] -0.01

Source: the supplement of paper PMC10849652
